From the supplement of paper PMC10849652
The other results are listed elsewhere or left out.

By UniProt entry, the sequences of proteins in these tests, tags left out. Where a name states a change or a piece, a line headed by the entry shows the natural chain unless it says otherwise.
UniProt Q8WUH2: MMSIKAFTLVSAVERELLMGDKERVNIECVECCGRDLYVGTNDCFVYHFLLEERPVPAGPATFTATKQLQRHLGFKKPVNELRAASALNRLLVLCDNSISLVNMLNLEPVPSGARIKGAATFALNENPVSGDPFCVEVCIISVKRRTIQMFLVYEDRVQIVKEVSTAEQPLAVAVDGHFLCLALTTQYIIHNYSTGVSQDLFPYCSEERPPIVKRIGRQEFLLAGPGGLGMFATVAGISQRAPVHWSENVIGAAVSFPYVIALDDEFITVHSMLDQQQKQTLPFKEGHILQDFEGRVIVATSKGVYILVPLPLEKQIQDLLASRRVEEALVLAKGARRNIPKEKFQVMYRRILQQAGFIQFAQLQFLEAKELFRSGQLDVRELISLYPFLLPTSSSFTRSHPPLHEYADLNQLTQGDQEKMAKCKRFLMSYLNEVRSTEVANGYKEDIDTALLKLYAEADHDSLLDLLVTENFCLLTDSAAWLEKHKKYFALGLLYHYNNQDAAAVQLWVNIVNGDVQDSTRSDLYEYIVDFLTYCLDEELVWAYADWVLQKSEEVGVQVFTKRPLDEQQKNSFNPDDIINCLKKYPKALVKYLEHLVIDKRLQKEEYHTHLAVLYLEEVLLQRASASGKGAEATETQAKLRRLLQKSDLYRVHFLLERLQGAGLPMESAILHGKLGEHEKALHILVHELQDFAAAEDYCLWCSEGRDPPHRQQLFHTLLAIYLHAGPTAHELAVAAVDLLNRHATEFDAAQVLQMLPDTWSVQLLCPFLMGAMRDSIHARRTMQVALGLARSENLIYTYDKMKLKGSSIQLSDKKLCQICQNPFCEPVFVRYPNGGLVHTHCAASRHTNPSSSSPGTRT
UniProt P15923: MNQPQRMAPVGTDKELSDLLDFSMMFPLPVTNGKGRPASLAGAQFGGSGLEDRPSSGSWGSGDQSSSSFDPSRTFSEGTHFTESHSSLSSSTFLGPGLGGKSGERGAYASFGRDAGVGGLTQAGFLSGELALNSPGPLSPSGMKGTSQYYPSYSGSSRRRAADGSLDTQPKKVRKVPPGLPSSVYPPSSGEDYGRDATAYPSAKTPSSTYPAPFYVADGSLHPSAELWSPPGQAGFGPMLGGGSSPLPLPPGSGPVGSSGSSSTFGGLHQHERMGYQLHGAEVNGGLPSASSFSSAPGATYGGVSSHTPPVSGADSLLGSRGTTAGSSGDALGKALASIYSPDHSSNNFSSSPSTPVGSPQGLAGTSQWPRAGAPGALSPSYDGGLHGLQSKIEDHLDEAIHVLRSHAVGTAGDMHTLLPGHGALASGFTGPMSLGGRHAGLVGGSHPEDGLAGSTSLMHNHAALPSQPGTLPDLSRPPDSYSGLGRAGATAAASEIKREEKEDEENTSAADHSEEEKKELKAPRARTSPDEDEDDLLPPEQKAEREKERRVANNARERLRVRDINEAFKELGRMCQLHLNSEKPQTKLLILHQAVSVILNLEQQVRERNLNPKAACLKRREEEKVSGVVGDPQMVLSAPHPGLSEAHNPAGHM
UniProt P62072: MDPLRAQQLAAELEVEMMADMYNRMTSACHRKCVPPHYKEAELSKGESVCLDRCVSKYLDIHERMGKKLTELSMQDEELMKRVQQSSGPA
UniProt Q66K14, whole entry, looked up: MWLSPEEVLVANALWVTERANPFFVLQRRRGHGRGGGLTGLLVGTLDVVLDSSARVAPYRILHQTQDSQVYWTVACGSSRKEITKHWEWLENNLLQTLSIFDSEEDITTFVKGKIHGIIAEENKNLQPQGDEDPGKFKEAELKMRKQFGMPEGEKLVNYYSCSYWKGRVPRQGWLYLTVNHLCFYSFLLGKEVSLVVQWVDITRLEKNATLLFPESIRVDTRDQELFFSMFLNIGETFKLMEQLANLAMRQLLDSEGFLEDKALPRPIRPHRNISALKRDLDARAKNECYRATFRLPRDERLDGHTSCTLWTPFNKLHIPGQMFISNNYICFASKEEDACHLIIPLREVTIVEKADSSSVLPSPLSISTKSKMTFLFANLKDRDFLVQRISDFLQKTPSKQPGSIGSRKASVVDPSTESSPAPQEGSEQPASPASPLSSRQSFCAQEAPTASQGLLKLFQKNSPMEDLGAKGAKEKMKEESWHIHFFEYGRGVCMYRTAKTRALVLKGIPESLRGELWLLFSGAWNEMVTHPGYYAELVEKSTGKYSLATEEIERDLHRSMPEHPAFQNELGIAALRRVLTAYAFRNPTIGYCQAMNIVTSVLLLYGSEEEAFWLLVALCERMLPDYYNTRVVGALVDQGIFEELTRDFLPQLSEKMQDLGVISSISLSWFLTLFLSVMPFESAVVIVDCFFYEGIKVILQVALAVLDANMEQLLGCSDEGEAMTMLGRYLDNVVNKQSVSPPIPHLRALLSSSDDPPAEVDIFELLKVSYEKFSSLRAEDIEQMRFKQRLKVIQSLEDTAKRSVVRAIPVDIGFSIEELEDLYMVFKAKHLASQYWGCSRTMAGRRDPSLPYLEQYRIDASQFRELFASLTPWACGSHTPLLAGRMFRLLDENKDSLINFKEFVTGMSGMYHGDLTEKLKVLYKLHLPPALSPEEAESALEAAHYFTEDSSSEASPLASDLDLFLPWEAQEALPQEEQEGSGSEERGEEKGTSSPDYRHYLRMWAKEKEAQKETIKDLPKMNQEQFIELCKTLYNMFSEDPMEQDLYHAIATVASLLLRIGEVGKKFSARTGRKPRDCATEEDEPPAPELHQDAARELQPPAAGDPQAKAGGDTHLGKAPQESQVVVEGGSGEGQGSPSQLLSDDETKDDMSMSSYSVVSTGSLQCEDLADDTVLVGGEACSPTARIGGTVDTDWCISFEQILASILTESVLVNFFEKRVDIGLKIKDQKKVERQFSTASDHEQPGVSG
UniProt Q3LXA3: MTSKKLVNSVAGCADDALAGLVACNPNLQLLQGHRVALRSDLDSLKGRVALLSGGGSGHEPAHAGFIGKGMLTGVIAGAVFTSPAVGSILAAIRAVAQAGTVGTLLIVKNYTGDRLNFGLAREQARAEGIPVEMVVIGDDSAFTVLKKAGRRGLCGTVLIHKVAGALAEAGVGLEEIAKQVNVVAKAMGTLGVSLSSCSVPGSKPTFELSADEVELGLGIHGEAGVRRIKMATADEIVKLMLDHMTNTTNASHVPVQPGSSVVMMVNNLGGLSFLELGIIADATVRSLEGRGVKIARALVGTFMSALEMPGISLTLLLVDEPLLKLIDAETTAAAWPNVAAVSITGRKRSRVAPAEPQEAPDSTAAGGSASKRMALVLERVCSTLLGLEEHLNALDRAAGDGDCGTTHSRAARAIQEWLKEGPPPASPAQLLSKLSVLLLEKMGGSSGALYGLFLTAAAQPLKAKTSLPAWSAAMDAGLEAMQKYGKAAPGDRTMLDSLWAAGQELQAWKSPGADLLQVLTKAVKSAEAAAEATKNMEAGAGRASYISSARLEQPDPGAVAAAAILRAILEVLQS
UniProt O60220: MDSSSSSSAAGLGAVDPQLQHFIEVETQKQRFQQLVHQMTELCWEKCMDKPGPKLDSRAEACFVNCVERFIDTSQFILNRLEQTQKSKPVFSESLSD
UniProt Q9BTF0: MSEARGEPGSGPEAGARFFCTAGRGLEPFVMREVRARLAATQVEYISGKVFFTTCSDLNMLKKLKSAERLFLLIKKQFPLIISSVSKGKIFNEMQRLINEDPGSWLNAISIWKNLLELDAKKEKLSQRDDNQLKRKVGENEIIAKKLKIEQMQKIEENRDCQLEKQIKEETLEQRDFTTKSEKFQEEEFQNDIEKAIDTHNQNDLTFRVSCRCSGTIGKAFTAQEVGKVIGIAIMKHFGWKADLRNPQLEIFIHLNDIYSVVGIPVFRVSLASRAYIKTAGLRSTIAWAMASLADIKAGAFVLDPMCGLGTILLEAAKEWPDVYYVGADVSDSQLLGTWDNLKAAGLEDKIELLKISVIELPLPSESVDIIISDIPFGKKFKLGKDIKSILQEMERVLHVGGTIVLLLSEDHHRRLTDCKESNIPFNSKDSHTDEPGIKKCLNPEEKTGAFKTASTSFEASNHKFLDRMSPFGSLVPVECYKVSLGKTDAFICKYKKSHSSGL
UniProt Q9H5Q4: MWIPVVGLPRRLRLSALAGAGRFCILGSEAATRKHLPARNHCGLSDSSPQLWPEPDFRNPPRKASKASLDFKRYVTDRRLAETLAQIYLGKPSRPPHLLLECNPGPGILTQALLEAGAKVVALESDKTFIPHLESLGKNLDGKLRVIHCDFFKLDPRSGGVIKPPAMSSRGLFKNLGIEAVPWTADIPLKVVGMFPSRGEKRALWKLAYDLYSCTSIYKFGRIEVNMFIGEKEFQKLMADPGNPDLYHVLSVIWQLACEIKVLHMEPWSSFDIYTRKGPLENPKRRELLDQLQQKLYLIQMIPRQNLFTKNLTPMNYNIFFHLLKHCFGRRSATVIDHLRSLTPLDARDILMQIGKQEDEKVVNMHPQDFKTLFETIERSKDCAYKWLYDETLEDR
UniProt Q99595: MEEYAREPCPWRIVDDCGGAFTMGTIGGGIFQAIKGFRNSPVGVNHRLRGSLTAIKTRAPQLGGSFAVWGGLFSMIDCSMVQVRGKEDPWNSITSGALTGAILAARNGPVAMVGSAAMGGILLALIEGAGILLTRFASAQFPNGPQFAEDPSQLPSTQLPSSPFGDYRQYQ
UniProt Q9NWX6: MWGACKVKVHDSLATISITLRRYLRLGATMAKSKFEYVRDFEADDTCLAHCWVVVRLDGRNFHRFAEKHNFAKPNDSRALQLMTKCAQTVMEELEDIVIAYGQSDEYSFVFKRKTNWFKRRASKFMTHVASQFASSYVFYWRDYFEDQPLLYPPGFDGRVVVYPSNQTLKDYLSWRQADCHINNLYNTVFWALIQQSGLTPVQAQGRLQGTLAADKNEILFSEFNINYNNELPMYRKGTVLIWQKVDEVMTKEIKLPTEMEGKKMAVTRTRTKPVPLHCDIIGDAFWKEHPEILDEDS
UniProt Q15814: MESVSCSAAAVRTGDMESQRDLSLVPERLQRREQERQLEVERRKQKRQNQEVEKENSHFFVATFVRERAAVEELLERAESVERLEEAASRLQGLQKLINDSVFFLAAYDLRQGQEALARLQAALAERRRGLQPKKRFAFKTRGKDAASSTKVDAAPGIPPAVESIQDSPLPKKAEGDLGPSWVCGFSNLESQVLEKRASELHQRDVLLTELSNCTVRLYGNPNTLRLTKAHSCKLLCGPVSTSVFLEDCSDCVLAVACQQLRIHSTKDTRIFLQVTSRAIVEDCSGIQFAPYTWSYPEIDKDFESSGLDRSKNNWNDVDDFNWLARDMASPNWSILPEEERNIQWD
UniProt O60343: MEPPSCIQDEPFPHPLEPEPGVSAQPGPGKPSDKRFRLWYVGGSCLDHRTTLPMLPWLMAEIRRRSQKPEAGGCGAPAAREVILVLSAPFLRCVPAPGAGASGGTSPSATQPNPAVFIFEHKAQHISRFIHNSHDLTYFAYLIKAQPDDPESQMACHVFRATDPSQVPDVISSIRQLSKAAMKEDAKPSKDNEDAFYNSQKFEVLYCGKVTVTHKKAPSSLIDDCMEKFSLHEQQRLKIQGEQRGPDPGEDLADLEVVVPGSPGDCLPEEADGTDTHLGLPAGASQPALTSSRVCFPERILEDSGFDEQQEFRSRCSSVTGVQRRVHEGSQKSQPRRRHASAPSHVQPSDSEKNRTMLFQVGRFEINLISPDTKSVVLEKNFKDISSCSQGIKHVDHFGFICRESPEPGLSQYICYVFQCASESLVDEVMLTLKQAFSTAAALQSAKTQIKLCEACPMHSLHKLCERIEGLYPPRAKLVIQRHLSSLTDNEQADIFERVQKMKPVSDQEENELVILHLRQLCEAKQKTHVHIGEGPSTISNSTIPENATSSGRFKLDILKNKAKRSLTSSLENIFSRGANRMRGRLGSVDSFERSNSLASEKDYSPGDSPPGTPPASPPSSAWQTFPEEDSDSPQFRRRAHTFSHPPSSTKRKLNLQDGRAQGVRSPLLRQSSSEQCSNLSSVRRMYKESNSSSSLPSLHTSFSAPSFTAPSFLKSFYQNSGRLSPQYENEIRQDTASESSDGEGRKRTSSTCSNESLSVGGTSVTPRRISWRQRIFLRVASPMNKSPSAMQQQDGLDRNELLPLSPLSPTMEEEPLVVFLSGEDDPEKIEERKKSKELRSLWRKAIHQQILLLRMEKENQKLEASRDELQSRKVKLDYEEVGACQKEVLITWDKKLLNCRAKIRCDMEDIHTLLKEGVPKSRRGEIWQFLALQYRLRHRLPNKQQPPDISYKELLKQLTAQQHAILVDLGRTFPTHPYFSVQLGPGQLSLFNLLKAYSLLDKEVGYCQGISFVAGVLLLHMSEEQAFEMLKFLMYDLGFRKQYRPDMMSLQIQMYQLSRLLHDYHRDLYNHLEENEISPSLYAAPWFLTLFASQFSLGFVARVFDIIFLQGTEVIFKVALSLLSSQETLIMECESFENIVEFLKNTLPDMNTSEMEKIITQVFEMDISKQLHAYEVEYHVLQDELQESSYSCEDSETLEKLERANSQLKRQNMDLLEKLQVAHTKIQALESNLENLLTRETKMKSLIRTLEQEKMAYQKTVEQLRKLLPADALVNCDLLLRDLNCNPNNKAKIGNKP

These targets were tested with C[C@@H]1COCCN1C2=NC(=NC(=C2)C3(CC3)S(=O)(=O)C)C4=C5C=CNC5=CC=C4 (assay: log2 fold change, soluble protein after heating vs DMSO (PISA); higher = thermal stabilisation; K562 cells, 10 uM, 30 min; active = over 0.2 and 3.5 SD of the protein, either way, in both replicates (recomputed)).
Method in brief: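 Values are thermal stability changes relative to control samples and are taken from duplicates. They are stated as log2 fold changes. Before quantification by TMTpro 16plex LC-MS/MS with equalised channel sums, K562 cells at 2×10^6 cells/mL were treated with 10 μM compound for 30 min, heated in aliquots for 3 min across 48°C-58°C, pooled, extracted in PBS with 0.5% NP-40 at 4°C, and centrifuged at 21,000xg for 90 min to give the soluble supernatant.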

log2 fold change, inactive:
TEX264 (UniProt Q9Y6I9) 0.064
THOP1 (UniProt P52888) 0.047
TGFBRAP1 (UniProt Q8WUH2) 0.051
TIMM9 (UniProt Q9Y5J7) 0.182
TCF3 (UniProt P15923) 0.075
TIMM10 (UniProt P62072) 0.099
TFR2 (UniProt Q9UP52) -0.001
TBL1XR1 (UniProt Q9BZK7) 0.068
TBC1D9B (UniProt Q66K14) 0.016
TKFC (UniProt Q3LXA3) 0.036
TGFBR1 isoform 2 (UniProt P36897) -0.031
TCOF1 isoform 4 (UniProt Q13428) 0.021
TIMM8A (UniProt O60220) -0.069
THUMPD2 (UniProt Q9BTF0) -0.003
TFB2M (UniProt Q9H5Q4) 0.096
TIMM17A (UniProt Q99595) -0.011
TFRC (UniProt P02786) 0.012
THG1L (UniProt Q9NWX6) 0.048
TBCC (UniProt Q15814) 0.04
TES (UniProt Q9UGI8) 0.05
TELO2 (UniProt Q9Y4R8) 0.013
TBCA (UniProt O75347) 0.018
TBC1D4 (UniProt O60343) 0.005

Random excerpt: 2 records from the list
log2 fold change, inactive:
TELO2 (UniProt Q9Y4R8) 0.013
TFRC (UniProt P02786) 0.012
